The results in this text go back to publication PMC13084340.

By UniProt entry, the sequences of proteins in these tests, tags left out.
UniProt P33993: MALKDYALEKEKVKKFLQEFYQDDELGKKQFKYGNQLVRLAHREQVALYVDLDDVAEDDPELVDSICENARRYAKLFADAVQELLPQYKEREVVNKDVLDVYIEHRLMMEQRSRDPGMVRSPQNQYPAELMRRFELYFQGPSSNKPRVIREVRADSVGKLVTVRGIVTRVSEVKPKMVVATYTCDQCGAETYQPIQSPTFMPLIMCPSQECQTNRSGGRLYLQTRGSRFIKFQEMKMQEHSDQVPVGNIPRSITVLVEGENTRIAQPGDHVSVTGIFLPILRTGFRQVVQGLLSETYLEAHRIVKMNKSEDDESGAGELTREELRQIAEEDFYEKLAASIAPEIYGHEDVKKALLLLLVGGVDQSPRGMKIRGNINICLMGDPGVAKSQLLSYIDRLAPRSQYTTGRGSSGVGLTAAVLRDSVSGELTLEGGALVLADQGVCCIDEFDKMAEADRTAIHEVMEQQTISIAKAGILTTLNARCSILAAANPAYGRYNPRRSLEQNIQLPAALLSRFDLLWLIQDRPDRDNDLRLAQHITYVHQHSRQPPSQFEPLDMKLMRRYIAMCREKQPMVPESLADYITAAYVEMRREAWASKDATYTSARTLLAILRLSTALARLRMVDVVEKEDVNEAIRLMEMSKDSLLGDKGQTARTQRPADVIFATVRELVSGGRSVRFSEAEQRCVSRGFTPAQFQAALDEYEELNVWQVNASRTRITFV
UniProt P04233: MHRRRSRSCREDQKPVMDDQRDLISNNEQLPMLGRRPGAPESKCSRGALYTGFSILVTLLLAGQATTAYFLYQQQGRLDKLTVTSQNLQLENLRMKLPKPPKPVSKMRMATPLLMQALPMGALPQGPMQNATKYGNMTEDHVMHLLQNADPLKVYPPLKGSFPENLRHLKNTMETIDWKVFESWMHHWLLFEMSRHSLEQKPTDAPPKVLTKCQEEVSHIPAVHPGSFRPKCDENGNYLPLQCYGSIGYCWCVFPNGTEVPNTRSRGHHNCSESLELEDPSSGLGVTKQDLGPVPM

Results are given in words; binding and its absence hold for the method and conditions named. In cells and extracts the contact can be indirect. Some results given as binding are weak or reduced against the parent protein; the word gives no strength.

This assay addresses minichromosome maintenance complex component 7 (MCM7) (human (endogenous in A549 and H1299)) (UniProt P33993). In words: co-IP; endogenous proteins; A549 and H1299 lysates in nondenaturing lysis buffer incubated with 3 ug anti-MCM7 antibody or normal rabbit IgG at room temperature for 2 h, Protein A/G agarose beads at 4°C for 4 h, five washes; western blot for MIF and CD74. (Immunoblotting shows a protein as a band on a membrane.)

For “CD74 (from UniProt P04233 1-296) (receptor)”, the binding entry is “binds”.

B1: macrophage migration inhibitory factor (MIF) (protein, UniProt P14174 1-115)
chain: MPMFIVNTNVPRASVPDGFLSELTQQLAQATGKPPQYIAVHVVPDQLMAFGGSSEPCALCSLHSIGKIGGAQNRSYSKLLCGLLAERLRISPDRVYINYYDMNAANVGWNNSTFA
With B1, the binding result is given as “binds”.
